# From US20180230224A1 (KITE PHARMA, published 2018)
# These are yes or no findings as the source states them, for the method shown. Some entries that bind do so weakly or less than the wild type. Where a sequence is shown, tags or fusion partners need not be part of it.
# T1: recombinant CD70-Fc (Sino Biological) (UniProt P32970)
# T1 sequence (looked up): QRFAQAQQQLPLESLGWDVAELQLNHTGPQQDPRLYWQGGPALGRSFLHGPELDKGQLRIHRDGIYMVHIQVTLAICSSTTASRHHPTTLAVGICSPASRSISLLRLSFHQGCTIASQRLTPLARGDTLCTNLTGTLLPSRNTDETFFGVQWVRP
# B1: 8G1.1_C28T_4Bz (other)
# chain: QEQLVESGGGVVQPGRSLRLSCAASGFTFSSYGMHWVRQAPGKGLEWVAVTWYDGSNKYYGDSVKGRFTISRDNSKNTLYLQMNSLRAEDTAVYYCARDLLRGVKGYAMDVWGQGTTVTVSSGGGGSGGGGSGGGGSEIVLTQSPGTLSLSPGERATLSCRASQSLRRIYLAWYQQKPGQAPRLLIYDVFDRATGIPDRFSGGGSGTDFTLTISRLEPEDFAVYYCQQYSDSPFTFGPGTKVDIKRAAALDNEKSNGTIIHVKGKHLCPSPLFPGPSKPFWVLVVVGGVLACYSLLVTVAFIIFWVRFSVVKRGRKKLLYIFKQPFMRPVQTTQEEDGCSCRFPEEEEGGCELRVKFSRSADAPAYQQGQNQLYNELNLGRREEYDVLDKRRGRDPEMGGKPRRKNPQEGLYNELQKDKMAEAYSEIGMKGERRRGKGHDGLYQGLSTATKDTYDALHMQALPPR
# notes: Chimeric antigen receptor on lentivirus-transduced human T cells; 8G1 scFv, CD28T hinge/TM, 4-1BB, CD3 zeta; also called 28T-4Bz comprising an 8G1 scFv
# B2: 8G1.1_C28T_28z (other)
# chain: QEQLVESGGGVVQPGRSLRLSCAASGFTFSSYGMHWVRQAPGKGLEWVAVTWYDGSNKYYGDSVKGRFTISRDNSKNTLYLQMNSLRAEDTAVYYCARDLLRGVKGYAMDVWGQGTTVTVSSGGGGSGGGGSGGGGSEIVLTQSPGTLSLSPGERATLSCRASQSLRRIYLAWYQQKPGQAPRLLIYDVFDRATGIPDRFSGGGSGTDFTLTISRLEPEDFAVYYCQQYSDSPFTFGPGTKVDIKRAAALDNEKSNGTIIHVKGKHLCPSPLFPGPSKPFWVLVVVGGVLACYSLLVTVAFIIFWVRSKRSRLLHSDYMNMTPRRPGPTRKHYQPYAPPRDFAAYRSRVKFSRSADAPAYQQGQNQLYNELNLGRREEYDVLDKRRGRDPEMGGKPRRKNPQEGLYNELQKDKMAEAYSEIGMKGERRRGKGHDGLYQGLSTATKDTYDALHMQALPPR
# notes: also called CD70 CAR C3L; 28T-28z comprising an 8G1 scFv
# B3: 6E9.1_C28T_4Bz (other)
# chain: QVHLVQSGAEVKKPGASVRVSCKASGYTFTSYYLHWVRQAPGQGLEWMGIVDPSGGSTSYDQKFQGRFTMTRDTSTSTVYMELSSLRSEDTAVYYCARDYGDYVFDYWGQGTLVTVSSGGGGSGGGGSGGGGSQSVLTQPPSASGTPGQRVTISCSGSSSNIGTNTVNWYQQLPGTAPQLLIYINNQRPSGVPDRFSGSKSGTSASLAISGLQSEDEADYYCATWDDSLNGPVVGGGTKLTVLGAAALDNEKSNGTIIHVKGKHLCPSPLFPGPSKPFWVLVVVGGVLACYSLLVTVAFIIFWVRFSVVKRGRKKLLYIFKQPFMRPVQTTQEEDGCSCRFPEEEEGGCELRVKFSRSADAPAYQQGQNQLYNELNLGRREEYDVLDKRRGRDPEMGGKPRRKNPQEGLYNELQKDKMAEAYSEIGMKGERRRGKGHDGLYQGLSTATKDTYDALHMQALPPR
# notes: Chimeric antigen receptor on lentivirus-transduced human T cells; 6E9 scFv, CD28T hinge/TM, 4-1BB, CD3 zeta; also called 28T-4Bz comprising a 6E9 scFv
# B4: 1C8.1.001_C28T_28z (other)
# chain: QVQLQESGPGLVKPSQTLSLTCTVSGDSIISGGYYWSWIRQHPGKGLEWIGYIFYSGSTDYNPSLKSRVTISVDTSKNQFSLKLSSVTAADTAVYYCARSGYSYALFDHWGQGTLVTVSSGGGGSGGGGSGGGGSDIQMTQSPSSLSASVGDRVTISCRASQFIGRYFNWYQQQPGKAPKVLIYAESSLQSGVPSRFSGSGSGTEFTLTISSLQPEDFARYYCQQSYSTPFTFGQGTKVEIKRAAALDNEKSNGTIIHVKGKHLCPSPLFPGPSKPFWVLVVVGGVLACYSLLVTVAFIIFWVRSKRSRLLHSDYMNMTPRRPGPTRKHYQPYAPPRDFAAYRSRVKFSRSADAPAYQQGQNQLYNELNLGRREEYDVLDKRRGRDPEMGGKPRRKNPQEGLYNELQKDKMAEAYSEIGMKGERRRGKGHDGLYQGLSTATKDTYDALHMQALPPR
# notes: Chimeric antigen receptor on lentivirus-transduced human T cells; also called 28T-28z comprising a 1C8 scFv
# B5: 6E9.1_C28T_28z (other)
# chain: QVHLVQSGAEVKKPGASVRVSCKASGYTFTSYYLHWVRQAPGQGLEWMGIVDPSGGSTSYDQKFQGRFTMTRDTSTSTVYMELSSLRSEDTAVYYCARDYGDYVFDYWGQGTLVTVSSGGGGSGGGGSGGGGSQSVLTQPPSASGTPGQRVTISCSGSSSNIGTNTVNWYQQLPGTAPQLLIYINNQRPSGVPDRFSGSKSGTSASLAISGLQSEDEADYYCATWDDSLNGPVVGGGTKLTVLGAAALDNEKSNGTIIHVKGKHLCPSPLFPGPSKPFWVLVVVGGVLACYSLLVTVAFIIFWVRSKRSRLLHSDYMNMTPRRPGPTRKHYQPYAPPRDFAAYRSRVKFSRSADAPAYQQGQNQLYNELNLGRREEYDVLDKRRGRDPEMGGKPRRKNPQEGLYNELQKDKMAEAYSEIGMKGERRRGKGHDGLYQGLSTATKDTYDALHMQALPPR
# notes: Chimeric antigen receptor on lentivirus-transduced human T cells; also called 28T-28z comprising a 6E9 scFv
# Biological target: T1, recombinant CD70-Fc (Sino Biological)
# Assay: flow cytometry; CAR-transduced T cells stained with recombinant CD70-Fc, then goat anti-human IgG Fc PE
row,Binder,binding
1,B1,binds
2,B2,binds
3,B3,binds
4,B4,binds
5,B5,binds
